## Library screen at single concentrations

Amino acid sequences for entries named in this document (tags omitted). Residues count along the entry.
UniProt P9WFT3, whole entry: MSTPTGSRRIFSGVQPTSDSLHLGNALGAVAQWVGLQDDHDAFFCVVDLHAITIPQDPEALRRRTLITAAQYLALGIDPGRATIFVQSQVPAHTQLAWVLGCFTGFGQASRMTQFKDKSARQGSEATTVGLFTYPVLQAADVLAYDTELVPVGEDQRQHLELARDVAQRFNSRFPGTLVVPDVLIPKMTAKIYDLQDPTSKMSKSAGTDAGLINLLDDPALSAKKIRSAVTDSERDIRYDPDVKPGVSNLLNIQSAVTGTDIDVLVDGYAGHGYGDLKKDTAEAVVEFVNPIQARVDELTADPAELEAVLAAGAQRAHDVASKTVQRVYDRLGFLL
UniProt P9WPC5, whole entry: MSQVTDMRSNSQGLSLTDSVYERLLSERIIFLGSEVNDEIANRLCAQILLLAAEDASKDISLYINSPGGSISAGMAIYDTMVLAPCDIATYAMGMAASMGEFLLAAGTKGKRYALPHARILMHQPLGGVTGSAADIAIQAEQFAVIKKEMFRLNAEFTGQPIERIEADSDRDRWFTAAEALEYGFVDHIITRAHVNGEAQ
UniProt P9WPC3, whole entry partner: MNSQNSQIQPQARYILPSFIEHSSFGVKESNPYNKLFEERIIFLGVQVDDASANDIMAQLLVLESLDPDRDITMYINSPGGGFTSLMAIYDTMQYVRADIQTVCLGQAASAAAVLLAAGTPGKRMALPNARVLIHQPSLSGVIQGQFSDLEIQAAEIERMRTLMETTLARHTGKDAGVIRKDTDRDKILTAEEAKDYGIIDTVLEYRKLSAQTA
UniProt Q8IDJ8, 1-583: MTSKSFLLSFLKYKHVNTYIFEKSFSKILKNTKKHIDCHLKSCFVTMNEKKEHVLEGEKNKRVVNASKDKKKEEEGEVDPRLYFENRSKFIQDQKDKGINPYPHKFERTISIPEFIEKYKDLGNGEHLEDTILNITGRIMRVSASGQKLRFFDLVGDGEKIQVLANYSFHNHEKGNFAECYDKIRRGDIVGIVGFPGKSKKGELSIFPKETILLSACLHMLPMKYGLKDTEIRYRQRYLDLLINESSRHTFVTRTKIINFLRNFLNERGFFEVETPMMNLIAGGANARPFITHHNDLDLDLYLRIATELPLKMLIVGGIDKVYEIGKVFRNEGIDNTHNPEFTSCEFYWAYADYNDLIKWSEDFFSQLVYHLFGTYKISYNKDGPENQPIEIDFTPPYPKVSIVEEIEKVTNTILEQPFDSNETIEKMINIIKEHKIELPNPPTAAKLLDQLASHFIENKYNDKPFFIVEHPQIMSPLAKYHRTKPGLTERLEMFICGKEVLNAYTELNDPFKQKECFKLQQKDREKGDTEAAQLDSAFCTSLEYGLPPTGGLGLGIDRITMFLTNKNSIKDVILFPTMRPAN
UniProt P9WNZ1, whole entry: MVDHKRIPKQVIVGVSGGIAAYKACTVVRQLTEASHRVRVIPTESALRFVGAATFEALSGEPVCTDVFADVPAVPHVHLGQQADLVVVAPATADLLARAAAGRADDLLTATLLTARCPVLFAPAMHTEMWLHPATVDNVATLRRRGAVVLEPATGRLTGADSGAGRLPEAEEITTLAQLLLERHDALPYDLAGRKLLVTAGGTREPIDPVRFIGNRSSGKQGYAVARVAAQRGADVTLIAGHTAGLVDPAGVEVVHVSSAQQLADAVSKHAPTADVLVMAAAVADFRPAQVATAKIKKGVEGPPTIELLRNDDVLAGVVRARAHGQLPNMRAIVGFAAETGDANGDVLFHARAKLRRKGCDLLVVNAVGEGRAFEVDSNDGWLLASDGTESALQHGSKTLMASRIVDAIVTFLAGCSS

Measurements from “University of Dundee, Small-Polar-MMV Screening Library” (2021), ChEMBL document CHEMBL3988442.

Results are given as percent effect.
The record does not define 0% and 100%; most values in the screen are far below 50% and negative numbers occur (in some assays of this library far below -100).
This is an unselected part of the compounds tested.
Two or more numbers in one place are separate tests of the same structure; such repeats can differ widely.
A dash means the value is not listed here; it may have been measured.

MtTrpRS: 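Enzyme assay of tryptophanyl-tRNA synthetase; the read-out is not stated. Target: Tryptophan-tRNA ligase, Mycobacterium tuberculosis (UniProt P9WFT3). Tested at 10 µM. Higher most likely means stronger inhibition; the record gives no direction and few retests gave an IC50. Size under these conditions: about 65,000 compounds, about 64 of them at 50% or above in at least one test.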
ClpP1P2: 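Protease assay of ClpP1P2, read by the AMC dye that it sets free. Target: ClpP1P2, Mycobacterium tuberculosis (UniProt P9WPC5 and UniProt P9WPC3). Tested at 50 µM. Higher reads as stronger inhibition, judged from the few compounds that gave an IC50. Most other retested compounds had strongly negative values. About 69,000 compounds were tested under these conditions; 0.015% (about 10) showed 50% or more at least once.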
Leishmania in macrophages: 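Cell assay of Leishmania donovani living inside macrophages; the read-out is not stated. Concentration: 30 µM. Higher reads as stronger inhibition (inferred: compounds with an IC50 in retests scored well above the rest). About 69,000 compounds were tested under these conditions; 1.5% (about 1,000) showed 50% or more at least once.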
PfKRS1: 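Lysine-tRNA ligase, Plasmodium falciparum 3D7 (UniProt Q8IDJ8). Enzyme assay of the cytosolic lysyl-tRNA synthetase in 384-well plates, read by luminescence. Concentration: 30 µM. Higher reads as stronger inhibition, judged from the few compounds that gave an IC50. Of about 69,000 compounds tested this way, about 49 (0.071%) reached 50% or more in at least one test.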
CoaBC: 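Enzyme assay of CoaBC with a phosphate dye (Biomol Green) read at 650 nm. Target: Coenzyme A biosynthesis protein CoaBC, Mycobacterium tuberculosis (UniProt P9WNZ1). Concentration: 30 µM. Higher reads as stronger inhibition, judged from the few compounds that gave an IC50. Most strong results did not repeat in a second test. Of about 67,000 compounds tested this way, about 40 (0.06%) reached 50% or more in at least one test.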

| # | compound | MtTrpRS | ClpP1P2 | Leishmania in macrophages | PfKRS1 | CoaBC |
|---|---|---|---|---|---|---|
| 1 | `Cc1nccn1C1CCCN(C(=O)c2ccc(N(C)C)nc2)C1` (stereo not drawn) | -3.411% | 1.396% | 36.71% | 3.088% | 1.836% |
| 2 | `O=C(O)c1cc(-n2cc3c(n2)CCC3)cc(S(=O)(=O)NC2CCCC2)c1` | 2.388% | -9.057% | 32.37% | 1.049% | -0.1209% |
| 3 | `Cc1noc([C@@H](C)NCc2ccc(F)cc2)c1C(=O)O` | -1.297% | -2.439% | - | 6.241% | 15.13% |
| 4 | `COc1cc(C(=O)N2CC[C@@H](NC(=O)c3ccccn3)[C@H](O)C2)ccn1` | -4.123% | -0.4631% | 21.29% | 2.202% | 3.599% |
| 5 | `CCCN(c1ccccc1C(=O)O)S(=O)(=O)c1cccc2cccnc12` | -1.685% | -3.102% | -2.727% | 4.616% | -11.41% |
| 6 | `Cc1ncncc1C(=O)N1CCOC(c2nc(C(C)C)n[nH]2)C1` (stereo not drawn) | -2.534% | -6.673% | -3.273% | 0.7938% | 3.259% |
| 7 | `COc1ncccc1C(=O)N1CCCC1c1nc(-c2ccccc2)n[nH]1` (stereo not drawn) | -1.538% | -12.47% | -18.27% | -0.4651% | -0.7371% |
| 8 | `CCCc1nc(CN2CCOC(Cn3cncn3)C2)cs1` (stereo not drawn) | 19.44% | -16.25% | -43.2% | -2.803% | 2.682% |
| 9 | `CC(C(=O)Nc1cccc(F)c1)N(C)CCN1CCOCC1` (stereo not drawn) | 3.123% | -6.305% | 12.74% | 0.423% | 3.65% |
| 10 | `[H][C@]12C[C@H](NC(=O)c3cscn3)[C@@]1([H])CN(S(=O)(=O)c1ccc(C)cc1)C2` | - | - | -12.11% | - | - |
| 11 | `CCc1ccc(CN2CCCCC2c2n[nH]cc2-c2cc(C)no2)cc1` (stereo not drawn) | 1.339% | -27.4% | - | 0.4275% | -0.7282% |
| 12 | `O=C(NCCc1cnccn1)C1(N2CCCCC2)Cc2ccccc2C1` | -1.569% | -15.77% | 30.24% | 4.373% | 8.738% |
| 13 | `CCN(CC)S(=O)(=O)CC(=O)N1CCc2ccc(Cl)cc21` | -1.255% | -10.32% | 16.26% | 1.959% | 13.59% |
| 14 | `Cc1ccc(CN2CCc3ncnc(OC(C)C)c3CC2)s1` | -6.413% | -25.48% | - | 6.533% | 7.097% |
| 15 | `CN1CCN(C[C@H]2OC[C@@H]3CCN(Cc4ccsc4)C[C@@H]32)CC1` | -4.628% | -22.39% | - | 4.167% | -5.679% |
| 16 | `Cc1cccc(CN(C(=O)CS(C)(=O)=O)C(C)C)c1` | 1.547% | -7.867% | -1.657% | 4.188% | 6.426% |
| 17 | `O=C(O)C(F)(F)F.O=C(O)C(F)(F)F.O=C1NC2(CCN(Cc3nccs3)CC2)CC1c1ccncc1` (stereo not drawn) | - | - | 18.7% | - | - |
| 18 | `O=C(Cc1csc(-c2ccccc2)n1)N[C@@H](C(=O)O)c1ccccc1` | 3.717% | -31.01% | 5.526% | 2.568% | -6.579% |
| 19 | `CCc1cc(C(=O)N2CCc3c(ncn3CCc3ccccc3)C2)[nH]n1` | 6.631% | 1.157% | 24.36% | 1.054% | -5.372% |
| 20 | `O=C(CCc1nc2ccccc2[nH]1)Nc1ccc2c(c1)OCC(=O)N2` | 1.375% | 12.2% | 16.04% | 2.549% | -7.813% |
| 21 | `Cc1nnc(NC(=O)N2CCN(Cc3ccc(F)cc3)C(=O)C2)s1` | -1.701% | -7.237% | 10.75% | 4.559% | 9.524% |
| 22 | `Cc1ccc(N2CCCC(NCc3cscn3)C2)nn1` (stereo not drawn) | -0.2347% | 15.59% | 40.41% | 0.6261% | 3.677% |
| 23 | `CN(C)C(=O)CN1C[C@@H]2CC[C@H](C1)N(Cc1c(F)cccc1Cl)C2` | 2.257% | -16.96% | - | 2.095% | 1.951% |
| 24 | `Cc1nc(C2CCCN2Cc2ccon2)no1` (stereo not drawn) | -6.749% | -20.16% | 20.66% | 0.239% | -4.318% |
| 25 | `COc1ccccc1CC(=O)N1CCC(NCc2cc[nH]c2)CC1` | -2.041% | 12.12% | 19.59% | 1.37% | 3.035% |
| 26 | `O=C(C1CCCC1)N1CCn2c(nnc2C2CCCNC2)C1` (stereo not drawn) | -8.384% | 0.1359% | 12.1% | 3.782% | -1.316% |
| 27 | `O=C1CC2(CCN(Cc3ccncc3)C2)CN1c1cccc(F)c1` (stereo not drawn) | -6.882% | -7.216% | - | 4.28% | 9.346% |
| 28 | `Cc1nc2c(c(=O)[nH]1)CCN(C(=O)c1cccc3nccnc13)C2` | - | -0.8351% | 5.721% | 1.179% | -0.9804% |
| 29 | `CC(=O)Nc1ccc(Cl)c(C(=O)N(C)C(C)c2ccon2)c1` (stereo not drawn) | 1.397% | 17.23% | 1.036% | 1.524% | -9.054% |
| 30 | `COc1ccc(CN(CC2CCCO2)C(=O)CN2CCOC2=O)cc1` (stereo not drawn) | -3.236% | 6.422% | 15.3% | 5.589% | 5.459% |
| 31 | `Cc1ccc(S(=O)(=O)N2CC(C)Oc3ncccc32)c(F)c1` (stereo not drawn) | 1.791% | -10.32% | 21.87% | 8.101% | 9.494% |
| 32 | `COC(=O)CCC(=O)N1CCc2[nH]nc(-c3ccc4c(c3)OCO4)c2C1` | -3.018% | -7.957% | -6.132% | 1.278% | 3.524% |
| 33 | `CC(CN1CCOCC1)OC(=O)c1ccccc1Cl` (stereo not drawn) | -7.593% | -6.879% | - | 4.249% | -2.658% |
| 34 | `Brc1cnc(NCCCOCC2CCOCC2)nc1` | -3.901% | -0.3799% | -80.39% | 0.6077% | 8.058% |
| 35 | `O=C1CCCN1CCCNCc1cc(O)c2cccc(F)c2n1` | 1.926% | 12.39% | 37.45% | 4.627% | -7.006% |
| 36 | `CCOc1ccccc1C(=O)N1CCCC1c1ncc2c(n1)CCNC2` (stereo not drawn) | 0.75% | 0.6079% | - | -2.923% | -1.44% |
| 37 | `CC(=O)N1CCN(c2ccccc2CNc2ccc(C)cn2)CC1` | -1.433% | -9.756% | -12.06% | -1.691% | 6.375% |
| 38 | `Cc1cc(-c2ccccc2C(=O)O)nc(C2CCCCN2C)n1` (stereo not drawn) | - | 0.9593% | 15.88% & 27.37% | 1.825% | 1.695% |
| 39 | `CC(C)NC(=O)c1nc2c(s1)CCCN2c1ccccc1` | 10.23% | 7.87% | 10.71% | -2.14% | -1.25% |
| 40 | `CCCN1CCCCC1C(=O)Nc1ccc(-c2nnc[nH]2)cc1` (stereo not drawn) | -2.089% | 5.547% | 6.317% | 9.238% | 2.335% |
| 41 | `O=C1N[C@@H]2CCN(C(=O)C3CCC3)[C@@H]2C(=O)N1c1ccc(F)cc1` | 10.47% | 9.978% | - | -3.412% | 0.2257% |
| 42 | `Cc1cc(C(=O)NCCC(C)C)ccc1NS(C)(=O)=O` | -2.84% | -5.006% | -4.054% | 2.812% | 0.9804% |
| 43 | `CC(C)n1cc(N2CC(C(=O)N3CCC(C(N)=O)CC3)CC2=O)cn1` (stereo not drawn) | -1.55% | 12.98% | 13.23% | 2.149% | 1.79% |
| 44 | `Cc1ccc(OCC(C)NS(=O)(=O)Cc2ccon2)cc1` (stereo not drawn) | 0.432% | -6.2% | -19.19% | 0.5379% | 7.282% |
| 45 | `CC1(C)CN(S(=O)(=O)N2CCOCC2)CC1c1ccccc1` (stereo not drawn) | -1.737% | -14.11% | -21.08% | -1.559% | -0.8696% |
| 46 | `O=C(NCc1cc[nH]n1)NCC(O)c1ccc(F)cc1F` (stereo not drawn) | 17.31% | 0.3% | 9.759% | 5.898% | 1.173% |
| 47 | `Cn1cc(CNC2CCCOc3c2ccc2ccccc32)cn1` (stereo not drawn) | -0.89% | 1.123% | 37.41% | 2.643% | 21.88% & 9.794% |
| 48 | `CN(C)c1nccc(N(C)C2CCOCC2)n1` | -0.4421% | -8.811% | 28.55% | 3.667% | 4.959% |
| 49 | `CCC(CO)N(Cc1ccsc1)CC1CC1` (stereo not drawn) | -4.863% | 4.927% | 18.3% | 2.75% | 0.8264% |
| 50 | `CC1CCN(CC(=O)NC2CCN(C(C)c3ccccc3)CC2)CC1.Cl` (stereo not drawn) | - | - | 0.5624% | - | - |
| 51 | `CNC(=O)c1cccnc1N1CCC(OCc2ccccc2)CC1` | 1.485% | -4.22% | -28.49% | -0.3159% | 2.672% |
| 52 | `Cc1ccc(N2CCCC3(COCCN(c4ncccn4)C3)C2)nn1.O=C(O)C(F)(F)F` (stereo not drawn) | - | - | 31.45% | - | - |
| 53 | `Cc1c(Br)c(C(F)(F)F)nn1C(C)C(=O)O` (stereo not drawn) | 2.928% | -20.98% | -28.28% | 3.653% | -1.276% |
| 54 | `Cn1cc(CNCCOc2ccc(F)c(F)c2)c(-c2cccnc2)n1` | 4.191% | -7.691% | 13% | 4.524% | -14.54% |
| 55 | `CCCc1cnc(C)nc1N1CCC(Cn2cc(CO)nn2)CC1` | 2.441% | -3.265% | 7.386% | -2.291% | 0.3589% |
| 56 | `NCCCC(=O)NCC1(O)CCCN(c2ccnc3cccnc23)C1` (stereo not drawn) | -7.187% | -10.06% | 45.8% | 1.579% | -2.365% |
| 57 | `CC(NC(=O)NCc1cscn1)c1ccc(N2CCOCC2)cc1` (stereo not drawn) | -0.859% | -0.125% | -24.07% | 0.7949% | 0.609% |
| 58 | `COc1cc(CN(C)C(=O)NCCC(=O)NC2CCCC2)ccc1SC` | 10.29% | 6.848% | -8.54% | -3.598% | 3.024% |

Once more, the final 3:

compound,MtTrpRS,ClpP1P2,Leishmania in macrophages,PfKRS1,CoaBC
NCCCC(=O)NCC1(O)CCCN(c2ccnc3cccnc23)C1 (stereo not drawn),-7.187%,-10.06%,45.8%,1.579%,-2.365%
CC(NC(=O)NCc1cscn1)c1ccc(N2CCOCC2)cc1 (stereo not drawn),-0.859%,-0.125%,-24.07%,0.7949%,0.609%
COc1cc(CN(C)C(=O)NCCC(=O)NC2CCCC2)ccc1SC,10.29%,6.848%,-8.54%,-3.598%,3.024%